From patent US20200017771A1, “MEANS AND METHODS FOR LIGNIN PYROLYSIS” (UNIVERSITAET DES SAARLANDES, priority 2017, published 2020)
Some entries share one result that the patent states for a list of compounds.

Tested on: Corynebacterium glutamicum LIMA-1
Type: cell-based
Conditions: glucose as growth substrate; 24 hours
Description: C. glutamicum was grown at 1 mL-scale in a micro bioreactor (BioLector I, m2plabs, Baesweiler, Germany), using 48-well flower plates. […] All cultures were conducted as biological triplicate.
A set of growth experiments was conducted to study potential inhibitory effects of the compounds involved on growth of the producing strains.

Compound: Oc1ccccc1O [Catechol]
- level up to which the mutant grew (highest concentrations tested): ≤ 30 mM
